Growth estimate data for 114 substances are collected here from the supplement of paper PMC5949888.

Most values lie at the floor of the assay. Slopes are relative: functional sequences can read slightly below zero. Some results are limits rather than exact numbers.

This data set concerns Saccharomyces cerevisiae PS128 hsf1 delta, HSF1(1-493) fusion. Kind of data set: growth estimate (transactivation domain function in HSF1 fusion, heat-shock survival) (a.u. (slope of normalised read count over time)); higher = stronger growth at 37°C, i.e. more transactivation activity. The conditions noted are these: library: random library.
In the case of RPTE, the growth estimate was less than -0.25.

As for SLVNALAPL, the growth estimate was less than -0.25.

For the substance SVTDHGYSASHAYWAIELGW, the growth estimate was less than -0.25.

Regarding CHYSTDLPTL, the growth estimate is less than -0.25.

As to KAR, the growth estimate was less than -0.25.

For WYIL, the growth estimate was 4.7.

As for KGIRVCIMTYLNCKVRMRPR, the growth estimate was less than -0.25.

Regarding TLACKS, the growth estimate is less than -0.25.

Consider VTRPHTLLSKNQMS, for which the growth estimate was less than -0.25.

Regarding FAFQGVD, the growth estimate is less than -0.25.

Turning to SEGVARGRSTRVTVSRIYRD, the growth estimate is less than -0.25.

With ITLCIDLTKGRLRALEACAE, the growth estimate is less than -0.25.

With VTDRADKLS, the growth estimate is less than -0.25.

With SWDAGSAARDKNRCFGIPSP, the growth estimate was less than -0.25.

In the case of YALILPVGCCCYRRHCHLQR, the growth estimate is less than -0.25.

Consider MSRILPLGEVAGV, for which the growth estimate was less than -0.25.

As to VVIRLDIATGRTTLSADRSL, the growth estimate was less than -0.25.

For GPGT, the growth estimate was less than -0.25.

Turning to WPGRGTLEVMLELRVGHVFR, the growth estimate is less than -0.25.

As for MGLHEKNR, the growth estimate is less than -0.25.

ARWRDALGSWLRKRSSTSVS: the growth estimate is less than -0.25.

For the substance PIPSDDRRARGRTPRGVTGR, the growth estimate is less than -0.25.

Take VTGHSYRWRVQCRTV: the growth estimate was less than -0.25.

Consider ICLFTGLAAGCPASLCGGPP, for which the growth estimate is less than -0.25.

Regarding PADACTLNANAQTAFECR, the growth estimate is less than -0.25.

As for LRVQGKYRVSLFYAVIPVIA, the growth estimate is less than -0.25.

As for GSAIRRSSFKWVSRSSGARG, the growth estimate is less than -0.25.

On to NLMRLPIRLIEDREDRISNP, for which the growth estimate was less than -0.25.

As to LNHETAFSRGLLTAEIGKG, the growth estimate was less than -0.25.

Take RQTAMSMWLIARLK: the growth estimate was less than -0.25.

As to VRPSRVAPRGRCVHVHSLIG, the growth estimate was less than -0.25.

For the substance SGTEIGSGLREIMG, the growth estimate is less than -0.25.

For the substance PVCGKYPTTSGIEHPTGVVS, the growth estimate was less than -0.25.

For the substance FRPTLVALATSVCCPKHIST, the growth estimate was less than -0.25.

As to DTSLNSAGRGGT, the growth estimate is less than -0.25.

With VTCYTRADRGKLGAWRHVSE, the growth estimate was less than -0.25.

Take LCTTQRPAKRELTAGKSVHS: the growth estimate is less than -0.25.

Turning to IRYLDSGRAVALKAAWAWVR, the growth estimate is less than -0.25.

With GRVWFVVRWEVLATSWYHRC, the growth estimate is less than -0.25.

For the substance SNIKWYWVPRQLVHYMI, the growth estimate was less than -0.25.

In the case of TRLIIPGASGALNLLRVKAP, the growth estimate was less than -0.25.

On to TWGRGEPLAGATGIIM, for which the growth estimate is less than -0.25.

For PHERGKKSDGIMP, the growth estimate was less than -0.25.

Take VEVTYLASGRRPDTMVRITT: the growth estimate was less than -0.25.

Regarding IHRMVVTLSRIYSRPSVEPA, the growth estimate was less than -0.25.

As to DDYVIGGHAGTYIGRAVIKY, the growth estimate is less than -0.25.

Take EGQDYCSTAGTCI: the growth estimate was -0.245.

CLTI: the growth estimate is less than -0.25.

In the case of RTGRSTVIGTEAQ, the growth estimate was less than -0.25.

Take YHSGAYPAKQASGTGRW: the growth estimate is less than -0.25.

In the case of VNKYGMHTSRQPIYTTVLTP, the growth estimate is less than -0.25.

In the case of DAHPQVQVEDFFDVRDT, the growth estimate is -0.0522.

Take PQSYTTFGRVLSGPLNVTCA: the growth estimate is less than -0.25.

For SLQTKLR, the growth estimate was less than -0.25.

Consider QGSGLRFN, for which the growth estimate was less than -0.25.

Consider QKLQKRDLGPQHVTCGSSIV, for which the growth estimate was -0.243.

With RSLCTMIGIFVVH, the growth estimate is less than -0.25.

As to IKESKFTLS, the growth estimate is less than -0.25.

As to PGTSRHVIMGPRLIARTR, the growth estimate was less than -0.25.

Regarding TRGSEGTTRFS, the growth estimate was less than -0.25.

Take RTGLRTC: the growth estimate is less than -0.25.

On to NSCGEYNTSQNTDLPLAY, for which the growth estimate was less than -0.25.

SPRVG: the growth estimate was less than -0.25.

VGTSII: the growth estimate is less than -0.25.

Take DMSSLFTGVQLSLLSSGFYA: the growth estimate was less than -0.25.

Take CLGLLWYSATAIR: the growth estimate is less than -0.25.

As to WYPLTILYPPAAPHTLLSDG, the growth estimate was less than -0.25.

Consider CDGLNKR, for which the growth estimate was less than -0.25.

On to LYPKAVRS, for which the growth estimate was less than -0.25.

For HTY, the growth estimate is less than -0.25.

In the case of GDYGISSTTLRTILDRMQSS, the growth estimate is less than -0.25.

In the case of HVPSLL, the growth estimate was less than -0.25.

For the substance FCTAGWS, the growth estimate is less than -0.25.

In the case of GSKIKPVLSDSGNSPIHGAL, the growth estimate is less than -0.25.

Turning to RVLSNTRCLTSRRCEDSYYG, the growth estimate is less than -0.25.

For CLKMT, the growth estimate was less than -0.25.

With RATGVDKFELLDDSAISSAP, the growth estimate was -0.234.

On to PYNMFMIERCNSA, for which the growth estimate was less than -0.25.

As for HLMRSHCDNGGTRTPWCLRS, the growth estimate is less than -0.25.

In the case of GDQTQQP, the growth estimate is less than -0.25.

Consider RFLVHALERILVTGRREGPG, for which the growth estimate was less than -0.25.

For the substance IPMDSGRRTRYSW, the growth estimate is less than -0.25.

As for KGWSDKGIRIR, the growth estimate is less than -0.25.

Turning to KCPVCKN, the growth estimate was less than -0.25.

As to PYYYVIRTGSSALALVRPGC, the growth estimate is less than -0.25.

Turning to LGVGSFINSPGGALSLMKPK, the growth estimate is less than -0.25.

With TGYMPG, the growth estimate is less than -0.25.

WRATLAPVCD: the growth estimate is less than -0.25.

WGALPSCLVCVWCGKLVESL: the growth estimate was less than -0.25.

Consider HRERKTSLRVSLNETLHRRG, for which the growth estimate was less than -0.25.

Take LQIPCALVF: the growth estimate was less than -0.25.

On to HNQSRGEEHLYAGAIRSRLL, for which the growth estimate was less than -0.25.

CNRTTTRRRRYI: the growth estimate was less than -0.25.

Turning to HTWTMFANELPAFLPTTAMH, the growth estimate is 0.0093.

For TPGIEIERVNVLPVAL, the growth estimate was -0.21.

With ENVPDDLPRLRLVLRKT, the growth estimate was less than -0.25.

Consider QDTLFF, for which the growth estimate is less than -0.25.

Regarding DLFSLHFRT, the growth estimate was less than -0.25.

Take SVIRGFVAVG: the growth estimate is less than -0.25.

For LDVRVCVMLRGRPCYTRFSC, the growth estimate is less than -0.25.

With FQR, the growth estimate is -0.243.

Turning to GCSKVWQSALDSLYTVGITW, the growth estimate is less than -0.25.

Take EPCMFSRSELNIHPPQISRT: the growth estimate was less than -0.25.

AQMAVRELISYPIMTRKKVS: the growth estimate was less than -0.25.

Turning to NYLHFPGLRMVGAWPLFVTG, the growth estimate is less than -0.25.

As for VWPRLAGSRLESGQEASYNT, the growth estimate is less than -0.25.

With ALTIGGTLQSAI, the growth estimate is less than -0.25.

Turning to AVKVVALSAFVTECSSSRLQ, the growth estimate was less than -0.25.

As to ARSA, the growth estimate is -0.233.

Turning to LGADSTIGNVQGRWPL, the growth estimate is less than -0.25.

On to RTRKDRGHIWEERSLSR, for which the growth estimate is less than -0.25.

As for ESPNGVPFPGSDKVGSEEVR, the growth estimate is less than -0.25.

With AASSLRLIDRIVTGARSASP, the growth estimate is less than -0.25.

On to SAGQGRLLVCIPRAVKDGDG, for which the growth estimate was less than -0.25.
